Measurements taken from doi:10.1101/2025.08.12.669934 (bioRxiv, 2025).
These are yes or no findings as the source states them, for the method shown. Binding seen in cells or lysates may run through a third protein. Some results given as binding are weak or reduced against the parent protein; the word gives no strength. For some of these results: Sequences can lack the tags named with a protein.

The chains behind the UniProt entries cited, without tags or fusion partners. Where a name states a change or a piece, a line headed by the entry shows the natural chain unless it says otherwise.
UniProt Q07878, whole entry: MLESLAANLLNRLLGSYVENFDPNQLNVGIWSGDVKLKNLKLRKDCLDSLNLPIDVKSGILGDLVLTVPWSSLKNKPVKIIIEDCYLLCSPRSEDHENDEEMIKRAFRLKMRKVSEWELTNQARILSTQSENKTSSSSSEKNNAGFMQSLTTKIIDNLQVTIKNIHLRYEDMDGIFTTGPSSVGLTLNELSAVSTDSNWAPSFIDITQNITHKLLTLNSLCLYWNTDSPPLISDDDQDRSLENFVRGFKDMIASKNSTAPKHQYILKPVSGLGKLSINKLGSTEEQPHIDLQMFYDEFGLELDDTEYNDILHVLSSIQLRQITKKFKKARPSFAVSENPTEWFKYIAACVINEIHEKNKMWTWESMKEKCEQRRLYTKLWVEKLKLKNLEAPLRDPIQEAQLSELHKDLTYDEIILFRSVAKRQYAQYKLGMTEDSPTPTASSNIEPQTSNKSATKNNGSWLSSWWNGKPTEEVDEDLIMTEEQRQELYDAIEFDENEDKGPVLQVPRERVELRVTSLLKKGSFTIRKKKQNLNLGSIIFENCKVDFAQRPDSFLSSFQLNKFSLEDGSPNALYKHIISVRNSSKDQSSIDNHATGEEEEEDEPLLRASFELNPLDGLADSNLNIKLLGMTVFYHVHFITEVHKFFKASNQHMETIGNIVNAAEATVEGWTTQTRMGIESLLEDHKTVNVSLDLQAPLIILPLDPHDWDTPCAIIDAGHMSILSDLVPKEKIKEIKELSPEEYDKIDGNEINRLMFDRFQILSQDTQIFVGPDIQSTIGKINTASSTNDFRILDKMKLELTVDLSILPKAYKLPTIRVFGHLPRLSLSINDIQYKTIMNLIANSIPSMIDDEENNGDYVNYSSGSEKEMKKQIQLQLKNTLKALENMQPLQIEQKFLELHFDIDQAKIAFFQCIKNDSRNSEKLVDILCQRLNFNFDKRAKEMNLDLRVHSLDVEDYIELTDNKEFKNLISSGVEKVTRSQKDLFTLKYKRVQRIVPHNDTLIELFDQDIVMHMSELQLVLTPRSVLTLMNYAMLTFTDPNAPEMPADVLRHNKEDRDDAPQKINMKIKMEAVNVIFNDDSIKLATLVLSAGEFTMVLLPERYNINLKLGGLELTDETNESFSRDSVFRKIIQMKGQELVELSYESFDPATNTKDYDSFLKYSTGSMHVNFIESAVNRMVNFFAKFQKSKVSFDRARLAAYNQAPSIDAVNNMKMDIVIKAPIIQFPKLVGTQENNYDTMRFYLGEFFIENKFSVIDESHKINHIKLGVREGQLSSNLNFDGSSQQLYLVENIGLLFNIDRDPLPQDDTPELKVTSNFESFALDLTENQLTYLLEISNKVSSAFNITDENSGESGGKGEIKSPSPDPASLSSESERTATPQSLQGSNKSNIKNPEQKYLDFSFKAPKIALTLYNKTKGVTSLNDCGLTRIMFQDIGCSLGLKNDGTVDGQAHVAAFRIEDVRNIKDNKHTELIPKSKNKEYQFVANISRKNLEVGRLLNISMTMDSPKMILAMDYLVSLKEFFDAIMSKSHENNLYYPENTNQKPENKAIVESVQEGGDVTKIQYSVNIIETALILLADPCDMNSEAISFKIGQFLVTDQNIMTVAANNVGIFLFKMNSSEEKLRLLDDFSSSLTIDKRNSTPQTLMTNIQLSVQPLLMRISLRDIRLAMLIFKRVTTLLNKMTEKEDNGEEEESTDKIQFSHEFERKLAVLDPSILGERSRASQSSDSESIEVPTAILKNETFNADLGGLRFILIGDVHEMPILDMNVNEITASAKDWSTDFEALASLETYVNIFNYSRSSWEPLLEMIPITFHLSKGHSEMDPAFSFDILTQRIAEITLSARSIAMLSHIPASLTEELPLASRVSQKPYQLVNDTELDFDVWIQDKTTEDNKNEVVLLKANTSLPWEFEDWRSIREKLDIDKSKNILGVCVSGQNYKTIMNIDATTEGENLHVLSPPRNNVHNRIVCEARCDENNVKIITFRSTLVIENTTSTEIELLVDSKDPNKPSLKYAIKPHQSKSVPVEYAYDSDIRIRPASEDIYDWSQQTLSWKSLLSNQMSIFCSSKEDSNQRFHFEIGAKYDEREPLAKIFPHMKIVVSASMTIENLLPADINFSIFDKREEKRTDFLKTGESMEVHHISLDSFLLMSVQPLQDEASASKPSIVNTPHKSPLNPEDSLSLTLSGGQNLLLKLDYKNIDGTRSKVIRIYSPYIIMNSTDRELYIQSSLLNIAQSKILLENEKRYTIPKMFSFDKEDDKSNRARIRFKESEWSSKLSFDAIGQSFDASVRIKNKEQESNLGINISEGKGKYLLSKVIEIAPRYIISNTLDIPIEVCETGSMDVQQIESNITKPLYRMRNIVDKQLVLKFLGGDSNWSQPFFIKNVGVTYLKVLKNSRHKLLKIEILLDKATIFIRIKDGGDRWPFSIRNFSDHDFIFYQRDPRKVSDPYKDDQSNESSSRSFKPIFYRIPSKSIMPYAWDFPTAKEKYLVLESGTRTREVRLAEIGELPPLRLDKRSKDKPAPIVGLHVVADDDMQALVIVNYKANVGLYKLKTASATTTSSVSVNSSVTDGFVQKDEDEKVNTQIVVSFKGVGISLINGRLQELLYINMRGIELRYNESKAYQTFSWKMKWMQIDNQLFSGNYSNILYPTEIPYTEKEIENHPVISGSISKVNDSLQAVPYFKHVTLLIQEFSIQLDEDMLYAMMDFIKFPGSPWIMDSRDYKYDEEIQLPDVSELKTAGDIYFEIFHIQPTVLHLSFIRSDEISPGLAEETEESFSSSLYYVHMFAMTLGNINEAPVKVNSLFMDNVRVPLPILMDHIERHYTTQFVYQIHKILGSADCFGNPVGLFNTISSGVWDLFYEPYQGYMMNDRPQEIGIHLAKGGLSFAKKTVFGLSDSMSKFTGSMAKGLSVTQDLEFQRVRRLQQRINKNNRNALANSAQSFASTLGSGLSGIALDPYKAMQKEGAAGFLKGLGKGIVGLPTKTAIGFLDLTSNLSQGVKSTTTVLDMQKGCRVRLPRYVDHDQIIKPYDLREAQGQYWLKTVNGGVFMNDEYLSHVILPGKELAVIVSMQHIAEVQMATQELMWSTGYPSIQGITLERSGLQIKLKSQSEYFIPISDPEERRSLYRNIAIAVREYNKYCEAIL

Experiments:
Test in all cases: co-IP
[1] = molecular target: Vps13 E^2491A GT^2493-4A T^2496A ^GFP (S. cerevisiae) (UniProt Q07878)
Vps13^GFP (wild type) = Vps13^GFP (wild type) (S. cerevisiae, UniProt Q07878 1-3144)
[2] = molecular target: Vps13 H^2397A ^GFP (S. cerevisiae) (UniProt Q07878)

binding [1]	binding (Vps13^GFP (wild type))	binding [2]	Binder
binds	binds	–	Spo71-HA (protein, UniProt Q03868 1-1245) MDSIVNVVEDDVKYAQRVTSFSSPQNANVKVFTIPRHSFTAFRLSYVSPTELSACSQVTLLGGIPKQWYADQNNQVWKLLTKISLRKVRKQSDMLRRYGYGTIYKKRVGKIPTALYLRKHFTWSYEDNTSIHNGHRLKEAEMEMKRTRSSPVQKSEYKLSLPRRCRSSSDQNFMRQELLKEKKSELSRNNSLPLIDTAQAVDIHPVLHEEDQENTNKRNKSLLSNLKRKDLGESKSISRKDYSHFDRIPSPSSARSVGETDFNYNREPSEDTLRYPDSIIEVTNRTSPAPNSILSRSGQFVNSNDLSDGFSTSNTINNVGLNANEKIFFNALQSMEKENLMLWKTSQKYGTYLDERRKSADAFQKRERGSCVDIGKLHSSHLPFINILPPWPTELTEEERIIHDRLASKHSHHIRKHVHNARNKTSCKIKDSVGTFLGMTNSLTNKATVKKRTGQILKKEKMLVMVKEAIQNKVPLPNFSENECFDTRVSERWKEYIVIARSTGRFDPPILLQFYRHRHIPEIEDISSIATKYHRNPLDFFLSRNCIVKFYSSLDKTISIQKPDKRLGGFIDESIEKKDELKHYSPIKIFILRCSSIRSSGRWYKFLLESLDRQLFTPAINLKIPLTEISIKINLNEIIFQKLIDLGKQEKDRLKICFLQRGYKIFQHPILRYFTVAILEKLKLAHYDYLIRKWDTENPVLGCALKRYDRLEWIPCDEDSLVTGIFAFCQSHLIQYRPIANRLRETKSLEGKCLKEPTPIEGFLIRLTDKYGSARTNFGKYSISTAYFFTCENLLFSMKAYRANPPLPIDSMIDDTSTEIEKEEIWKQWKKIPEVYEQQPYPLDTNDHIEWMNCQTTQSEYDSRDFYAFHCFHRRIDQILKTDNVIDLTEVKDIYQGTRTDYEADKIKYGVYKEASEIFWHRNYEIDDVSRSVINIETSNGLLLKLLATSATVAEEWVIKLKQMISYWKNKQREDTERLLKIRRSNAGLLMLNGEEETKIGENTLRWIVEHGRADEQTFNANGISLSRPLIQKGPLYQKPHKHSVFSKYYVVLISGFIVLFHCFHRSTTGFAKEVLEYAHYVTIPIDDCYLYSGTTTELDLLQRDRTFDEINYGSHALPRVYGDGWRSVEDESSRCFTLWFGTRRALSSNRLQKKGNEKQYTQDYGRQDNNIDPPSAPEADLNNSNVPSNTDKIHFTKKLGVSGKSMVFMARSRQERDLWVMSIYYELERLRRTASTSNSRNQTM
–	binds	binds	Ypt35-3HA (natural protein, S. cerevisiae, UniProt P38815 1-214, looked up) MSDKISFLPPEPIQLLDEDSTEPELDIDSQQENEGPISASNSNDSTSHSNDCGATITRTRPRRSSSINANFSFQKAHVSDCTIVNGDHGTKFAVWRITVFLEPNLKAFAAKRESYKIQTYKRYSDFVRLRENLLTRIKTAKPEKLNCLQIPHLPPSVQWYSSWKYQEVNLNKDWLAKRQRGLEYFLNHIILNSSLVEMTKDILIQFLEPSKRVA
